Results from US20150017651A1.
These are yes or no findings as the source states them, for the method shown. Some results given as binding are weak or reduced against the parent protein; the word gives no strength.

The chains behind the UniProt entries cited, without tags or fusion partners. Where a name states a change or a piece, a line headed by the entry shows the natural chain unless it says otherwise. A line that says so, or that is headed by a name, gives the form on record, which may keep a tag or linker.
UniProt P08151: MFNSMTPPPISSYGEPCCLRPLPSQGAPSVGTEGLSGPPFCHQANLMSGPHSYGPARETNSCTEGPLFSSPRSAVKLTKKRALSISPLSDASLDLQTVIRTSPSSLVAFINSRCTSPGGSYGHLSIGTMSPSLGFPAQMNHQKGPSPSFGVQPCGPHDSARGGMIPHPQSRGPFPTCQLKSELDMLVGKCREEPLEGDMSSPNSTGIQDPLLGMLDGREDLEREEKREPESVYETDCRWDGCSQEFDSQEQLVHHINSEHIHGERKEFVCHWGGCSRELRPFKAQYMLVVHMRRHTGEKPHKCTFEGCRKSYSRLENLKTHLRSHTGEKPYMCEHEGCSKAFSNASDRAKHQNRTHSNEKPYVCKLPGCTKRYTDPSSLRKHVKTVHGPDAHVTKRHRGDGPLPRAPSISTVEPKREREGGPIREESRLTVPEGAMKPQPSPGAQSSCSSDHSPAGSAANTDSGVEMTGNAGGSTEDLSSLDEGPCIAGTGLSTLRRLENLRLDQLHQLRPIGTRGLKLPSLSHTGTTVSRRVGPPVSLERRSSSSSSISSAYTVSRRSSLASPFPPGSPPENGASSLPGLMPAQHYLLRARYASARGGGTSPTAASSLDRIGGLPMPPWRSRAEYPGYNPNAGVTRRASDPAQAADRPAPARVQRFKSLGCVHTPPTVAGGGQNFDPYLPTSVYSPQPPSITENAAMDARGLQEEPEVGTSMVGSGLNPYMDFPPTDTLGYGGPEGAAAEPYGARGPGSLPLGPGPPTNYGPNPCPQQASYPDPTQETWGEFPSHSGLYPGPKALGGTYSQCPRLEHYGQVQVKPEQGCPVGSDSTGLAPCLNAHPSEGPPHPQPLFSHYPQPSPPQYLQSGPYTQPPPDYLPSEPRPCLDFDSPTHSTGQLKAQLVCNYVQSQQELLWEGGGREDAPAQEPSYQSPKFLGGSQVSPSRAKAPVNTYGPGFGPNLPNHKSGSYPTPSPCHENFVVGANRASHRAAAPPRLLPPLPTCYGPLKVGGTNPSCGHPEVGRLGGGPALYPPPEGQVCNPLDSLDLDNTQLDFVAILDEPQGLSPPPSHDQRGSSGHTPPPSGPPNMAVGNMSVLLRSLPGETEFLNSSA
HA-tagged constitutively activated S6K1T389E (P23443, form named): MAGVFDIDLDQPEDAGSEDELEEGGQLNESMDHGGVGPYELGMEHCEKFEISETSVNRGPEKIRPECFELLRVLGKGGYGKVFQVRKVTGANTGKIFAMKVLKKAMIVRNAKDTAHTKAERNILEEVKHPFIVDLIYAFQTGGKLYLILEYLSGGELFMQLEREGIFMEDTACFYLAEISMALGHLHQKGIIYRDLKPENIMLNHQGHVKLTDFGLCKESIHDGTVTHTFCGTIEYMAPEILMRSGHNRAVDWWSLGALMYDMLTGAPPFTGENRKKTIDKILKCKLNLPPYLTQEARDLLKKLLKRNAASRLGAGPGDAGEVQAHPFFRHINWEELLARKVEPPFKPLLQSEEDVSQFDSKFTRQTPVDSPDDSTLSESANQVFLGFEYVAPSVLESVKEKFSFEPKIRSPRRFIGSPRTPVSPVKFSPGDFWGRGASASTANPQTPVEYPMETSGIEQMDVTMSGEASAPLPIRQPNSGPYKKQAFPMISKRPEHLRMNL

Key:
[1] = molecular target: Gli1 (wild-type, full-length) (human) (UniProt P08151); test: IP-Western, BE3 cells transfected with HA-T389E; the interaction was not inhibited by rapamycin
[2] = molecular target: Gli1 (wild-type, full-length) (human) (UniProt P08151); test: IP-Western, BE3 cells transfected with HA-S6K1; the interaction was inhibited by rapamycin

| binding [1] | binding [2] | Substance |
| --- | --- | --- |
| binds | – | HA-tagged constitutively activated S6K1T389E (from UniProt P23443 1-502) (enzyme) |
| – | binds | HA-tagged wild-type S6K1 (from UniProt P23443 1-502) (enzyme) |
